# EP4692091A1 (Changchun Genescience Pharmaceutical Co., Ltd., priority 2023, dated 2024)
# Assay: general procedure: solution-phase peptide synthesis; HATU/DIPEA; DMTMM/triethylamine
# Conditions: coupling step
row,Substance,step yield [%]
1,"Benzyl (11S,19R)-11-benzyl-1-(9H-fluoren-9-yl)-19-methyl-3,6,9,12,15-pentaoxo-2,18-dioxo-4,7,10,13,16-pentaazabenzofuran-21-oate",42
2,"benzyl (11S, 19R)-11-benzyl-19-cyclopropyl-1-(9H-fluoro-9-yl)-3,6,9,12,15-pentaoxo-2,18-dioxo-4,7,10,13,16-pentaazaeicosanoate",76

# Same assay, conditions: late stage modification step
row,Substance,step yield [%]
1,"(1R,3S)-3-(((S)-7-benzyl-20-(2,5-dioxo-2,5-dihydro-1H-pyrrol-1-yl)-3,6,9,12,15-pentaoxo-2,7,8,11,14-pentaazaeicosyl)oxy)cyclobutane-1-carboxylic acid",13
2,"(2R,10S)-16-amino-10-benzyl-2-cyclopropyl-6,9,12,15-tetraoxo-3-oxo-5,8,11,14-tetraazahexadecanoic acid",54
3,"(3R,11S)-11-benzyl-3-methyl-24-(2-(methylsulfonyl)pyrimidin-5-yl)-7,10,13,16,19-pentaoxo-4-oxo-6,9,12,15,18-pentaazatetracarbonyl-23-enoic acid",21
4,"(3R, 11S)-11-benzyl-24-(2,5-dioxo-2,5-dihydro-1H-pyrrol-1-yl)-3-methyl-7,10,13,16,19-pentaoxo-4-oxa-6,9,12,15,18-pentaazabutanoic acid",39
5,"(7S,15R)-1-amino-7-benzyl-15-methyl-2,5,8,11-tetraoxo-14-oxo-3,6,9,12-tetraazaheptadecan-17-carboxylic acid",76
6,"benzyl (11S,19R)-11-benzyl-19-cyclopropyl-1-(9H-fluoren-9-yl)-3,6,9,12,15-pentaoxo-2,18-dioxo-4,7,10,13,16-pentaazaeicosanoate",71
